From ChEMBL document CHEMBL3124860, “Fragment-based identification of amides derived from trans-2-(pyridin-3-yl)cyclopropanecarboxylic acid as potent inhibitors of human nicotinamide phosphoribosyltransferase (NAMPT)” (J Med Chem, 2014) come the findings set out here.

Converted amounts (≈) assume the structure as drawn.

The nature of the data set: physchem. As to conditions: buffer.

In general, solubility refers to the dissolved amount per volume that the medium holds. Low readings indicate a poorly soluble substance, high ones a readily soluble substance.

With `O=C(Nc1ccc(S(=O)(=O)N2CC3CCC(C2)O3)cc1)[C@@H]1C[C@H]1c1cccnc1` (mixture of isomers), the solubility at 24 h stood at 13 µM.

`O=C(Nc1ccc(S(=O)(=O)c2cnn(C3CCOCC3)c2)cc1)[C@@H]1C[C@H]1c1cccnc1` (racemic) came in with a solubility at 24 h of 92 µM (≈ 41.6 µg/mL).
